{"source": "PubChem BioAssay AID743121 – NCATS | 2013", "purpose": "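Genes whose silencing strengthens cell killing by camptothecin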 (primary screen)", "cell system": "MDA-MB-231 cells, a human breast cancer line", "reagents": "single siRNA against human genes, 20 nM siRNA (0.8 pmol per well)", "timing": "120 h (drug added 48 h after transfection, read 72 h later)", "treatment": "camptothecin 20 nM (about EC30) for 72 h; vehicle 0.1% DMSO in parallel plates", "measurement": "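CellTiter-Glo ATP signal, scaled to control siRNA as percent viability; sensitisation given as log2 of untreated divided by camptothecin-treated viability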", "direction": "log2 vehicle/camptothecin viability: higher = stronger sensitisation to camptothecin; viability with camptothecin: higher = more viable cells", "units": "viability with camptothecin in % of control", "rule for the call": "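Each gene scored by redundant siRNA activity (RSA) over its individual siRNA ratios; a gene is called active at p < 0.001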", "note": "Shown is an unselected part of about 26,000 reagents. 167 of them (0.63%) were called active. 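Calls are per gene from RSA p-values that are not deposited; an individual active-marked siRNA can sensitise only weakly.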 Unmarked entries are inactive. The numbers tell different reagents against one gene apart. Not all columns of the deposit are shown."}
{"Gene": "ESRRA", "siRNA no.": 1, "log2 vehicle/camptothecin viability": -0.173, "viability with camptothecin": 97.4}
{"Gene": "ESRRA", "siRNA no.": 2, "log2 vehicle/camptothecin viability": -0.433, "viability with camptothecin": 51}
{"Gene": "ESRRA", "siRNA no.": 3, "log2 vehicle/camptothecin viability": -0.461, "viability with camptothecin": 95.2}
{"Gene": "ESRRA", "siRNA no.": 4, "log2 vehicle/camptothecin viability": -0.477, "viability with camptothecin": 65.1}
{"Gene": "PRSS33", "siRNA no.": 1, "log2 vehicle/camptothecin viability": -0.113, "viability with camptothecin": 71.8}
{"Gene": "PRSS33", "siRNA no.": 2, "log2 vehicle/camptothecin viability": -0.0756, "viability with camptothecin": 79.1}
{"Gene": "PRSS33", "siRNA no.": 3, "log2 vehicle/camptothecin viability": -0.354, "viability with camptothecin": 94.7}
{"Gene": "PRSS33", "siRNA no.": 4, "log2 vehicle/camptothecin viability": 0.0891, "viability with camptothecin": 84}
{"Gene": "STK32B", "siRNA no.": 1, "log2 vehicle/camptothecin viability": -0.191, "viability with camptothecin": 40.9}
{"Gene": "STK32B", "siRNA no.": 2, "log2 vehicle/camptothecin viability": -0.13, "viability with camptothecin": 104}
{"Gene": "STK32B", "siRNA no.": 3, "log2 vehicle/camptothecin viability": -0.299, "viability with camptothecin": 93.5}
{"Gene": "STK32B", "siRNA no.": 4, "log2 vehicle/camptothecin viability": 0.0694, "viability with camptothecin": 74.3}
{"Gene": "NIPA1", "siRNA no.": 1, "log2 vehicle/camptothecin viability": -0.0609, "viability with camptothecin": 78.8}
{"Gene": "NIPA1", "siRNA no.": 2, "log2 vehicle/camptothecin viability": -0.497, "viability with camptothecin": 85.4}
{"Gene": "NIPA1", "siRNA no.": 3, "log2 vehicle/camptothecin viability": -0.607, "viability with camptothecin": 90.5}
{"Gene": "NIPA1", "siRNA no.": 4, "log2 vehicle/camptothecin viability": -0.126, "viability with camptothecin": 101}
{"Gene": "ACKR5", "siRNA no.": 1, "log2 vehicle/camptothecin viability": -0.531, "viability with camptothecin": 46.2}
{"Gene": "ACKR5", "siRNA no.": 2, "log2 vehicle/camptothecin viability": -0.654, "viability with camptothecin": 106}
{"Gene": "ACKR5", "siRNA no.": 3, "log2 vehicle/camptothecin viability": -0.269, "viability with camptothecin": 64.5}
{"Gene": "ACKR5", "siRNA no.": 4, "log2 vehicle/camptothecin viability": -0.326, "viability with camptothecin": 84.7}

Continued (2 carried over from the part before).
{"Gene": "ACKR5", "siRNA no.": 3, "log2 vehicle/camptothecin viability": -0.269, "viability with camptothecin": 64.5}
{"Gene": "ACKR5", "siRNA no.": 4, "log2 vehicle/camptothecin viability": -0.326, "viability with camptothecin": 84.7}
{"Gene": "UROS", "siRNA no.": 1, "log2 vehicle/camptothecin viability": 0.0356, "viability with camptothecin": 94.4}
{"Gene": "UROS", "siRNA no.": 2, "log2 vehicle/camptothecin viability": -0.501, "viability with camptothecin": 77.8}
{"Gene": "UROS", "siRNA no.": 3, "log2 vehicle/camptothecin viability": -0.163, "viability with camptothecin": 119}
{"Gene": "UROS", "siRNA no.": 4, "log2 vehicle/camptothecin viability": 0.247, "viability with camptothecin": 57}
{"Gene": "RAB2A", "siRNA no.": 1, "log2 vehicle/camptothecin viability": 0.208, "viability with camptothecin": 43.8}
{"Gene": "RAB2A", "siRNA no.": 2, "log2 vehicle/camptothecin viability": 0.251, "viability with camptothecin": 66.9}
{"Gene": "RAB2A", "siRNA no.": 3, "log2 vehicle/camptothecin viability": 0.0563, "viability with camptothecin": 94.4}
{"Gene": "RAB2A", "siRNA no.": 4, "log2 vehicle/camptothecin viability": 0.135, "viability with camptothecin": 69.5}
{"Gene": "CD300LG", "siRNA no.": 1, "log2 vehicle/camptothecin viability": -0.494, "viability with camptothecin": 86.6}
{"Gene": "CD300LG", "siRNA no.": 2, "log2 vehicle/camptothecin viability": -0.0627, "viability with camptothecin": 85}
{"Gene": "CD300LG", "siRNA no.": 3, "log2 vehicle/camptothecin viability": -0.247, "viability with camptothecin": 46.8}
{"Gene": "CD300LG", "siRNA no.": 4, "log2 vehicle/camptothecin viability": -0.361, "viability with camptothecin": 85.8}
{"Gene": "DCBLD2", "siRNA no.": 1, "log2 vehicle/camptothecin viability": -0.34, "viability with camptothecin": 80.1}
{"Gene": "DCBLD2", "siRNA no.": 2, "log2 vehicle/camptothecin viability": -0.169, "viability with camptothecin": 73.6}
{"Gene": "DCBLD2", "siRNA no.": 3, "log2 vehicle/camptothecin viability": -0.0199, "viability with camptothecin": 80.3}
{"Gene": "DCBLD2", "siRNA no.": 4, "log2 vehicle/camptothecin viability": -0.0693, "viability with camptothecin": 48.7}
{"Gene": "PRMT8", "siRNA no.": 1, "log2 vehicle/camptothecin viability": 0.535, "viability with camptothecin": 61.1}
{"Gene": "PRMT8", "siRNA no.": 2, "log2 vehicle/camptothecin viability": 0.00517, "viability with camptothecin": 100}
{"Gene": "PRMT8", "siRNA no.": 3, "log2 vehicle/camptothecin viability": -0.454, "viability with camptothecin": 71.1}
{"Gene": "PRMT8", "siRNA no.": 4, "log2 vehicle/camptothecin viability": -0.0404, "viability with camptothecin": 101}
{"Gene": "RAB9A", "siRNA no.": 1, "log2 vehicle/camptothecin viability": 0.241, "viability with camptothecin": 70}
{"Gene": "RAB9A", "siRNA no.": 2, "log2 vehicle/camptothecin viability": -0.417, "viability with camptothecin": 81.4}
{"Gene": "RAB9A", "siRNA no.": 3, "log2 vehicle/camptothecin viability": -0.139, "viability with camptothecin": 91.9}
{"Gene": "RAB9A", "siRNA no.": 4, "log2 vehicle/camptothecin viability": -0.254, "viability with camptothecin": 134}
{"Gene": "ANGPTL7", "siRNA no.": 1, "log2 vehicle/camptothecin viability": -0.178, "viability with camptothecin": 97.6}
{"Gene": "ANGPTL7", "siRNA no.": 2, "log2 vehicle/camptothecin viability": -0.0575, "viability with camptothecin": 26.3}
{"Gene": "ANGPTL7", "siRNA no.": 3, "log2 vehicle/camptothecin viability": -0.109, "viability with camptothecin": 119}
{"Gene": "ANGPTL7", "siRNA no.": 4, "log2 vehicle/camptothecin viability": -0.167, "viability with camptothecin": 46.8}
